PubChem BioAssay AID504842 (National Center for Advancing Translational Sciences (NCATS), 2011)
The campaign covered roughly 330,000 compounds. About 100 (0.03%) were called active. Inconclusive results, whose numbers are uncertain, are shown with a selection of clear calls. Calls follow the shape of the dose curve; as a rule, active = well fitted inhibition curve with a large enough effect; inconclusive = small, poorly fitted or top-dose-only effect; inactive = flat fitted curve, though single readings scatter. Potencies beside an inconclusive call are fits to weak or partial responses and may not hold up.

test system: Chaperonin Mm-Cpn (Methanococcus maripaludis); experiment: Inhibitors of TCP-1 ring complex (TRiC) of Methanococcus maripaludis (MmCpn): qHTS; conditions: purified Mm-Cpn ATPase, ADP Transcreener TR-FRET; also: nearly all actives have a fitted effect of over 80% in size;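 as to Potency: enzyme at 25 nM with ATP substrate at 10 µM during the reaction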
How it was run: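 25 nM Mm-CPN + cpd, 10 min 37°C; + 10 uM ATP, 30 min 37°C; buffer 30 mM Tris pH 7.4, 100 mM KCl, 5 mM MgCl2, 1 mM DTT; Transcreener ADP HTRF detection 30 min RT.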
Potency is read from the fitted curve at half-maximal effect.

Potency, inconclusive:
CCCCn1c(CCC(=O)O)nc2cc(S(=O)(=O)N(CC)CC)ccc21 12.6 µM [inhibitor, single point], O=C(CN(C(=O)c1csnn1)c1cccc(C(F)(F)F)c1)NCCc1ccccc1 22.4 µM [inhibitor, single point], COc1ccc(-c2sc3cc(OC)c(OC)cc3c2C#CC2(O)CCCCC2)cc1 100 µM [inhibitor, single point], O=C(CNC(=O)C12CC3CC(CC(C3)C1)C2)NC1=NCCS1 89.1 µM [inhibitor, single point], Cc1cc(C)c(C)c(S(=O)(=O)N2CCN(c3ncnc4sc(C)c(C)c34)CC2)c1C 56.2 µM [inhibitor, single point], Nc1ccc(-c2nc3c(Cl)cc(N)cc3[nH]2)cc1 178 µM [inhibitor, partial curve, poor fit], CCOC(=O)c1c(CNc2ccncc2)n(C)c2cc(Br)c(O)cc12 14.1 µM [inhibitor, single point], CC(C)(C)c1nc(CN2CCOCC2)cc(CN2CCOCC2)c1O 79.4 µM [inhibitor, single point], Cc1ccsc1/C=N/Nc1nc(Cl)c(Cl)cc1Cl 10 µM [inhibitor, single point], O=c1c(Cl)c(Cl)cnn1Cc1nnc(-c2ccc(Cl)cc2)o1 562 µM [inhibitor, partial curve, poor fit], NC(=O)[C@@H]1CC2(CC(c3cccc(NC(=O)[C@H]4CCC(=O)N4)c3)=NO2)CN1C(=O)c1ccc(Cl)cc1 (some centres not stated) 100 µM [inhibitor, partial curve, poor fit], COc1cccc(-c2csc(N3CCN(C(=S)Nc4ccc(Cl)cc4)CC3)n2)c1 35.5 µM [inhibitor, partial curve, poor fit], COc1cccc(C(=O)CC(=O)C(=O)Nc2cc(OC)ccc2OC)c1 5.62 µM [inhibitor, single point], O=C(COC(=O)c1cc(=O)[nH]c(=O)[nH]1)Nc1ccccc1F 79.4 µM [inhibitor, single point], COc1ccc2nc(N/C(N)=N/C(=S)Nc3ccc(C)c(C)c3)nc(C)c2c1 100 µM [inhibitor, single point], O=C(c1cnn2c(C(F)F)cc(-c3ccccc3)nc12)N1CCCc2ccccc21 100 µM [inhibitor, single point], O=C(O)CCc1ccc(-c2ccc(F)cc2)n1NC(=O)c1ccco1 63.1 µM [inhibitor, single point], COc1ccc(OC)c(S(=O)(=O)Nc2c(C)n(C)n(-c3ccccc3)c2=O)c1 100 µM [inhibitor, single point], NC(=O)c1cc(NC(=O)c2cc(Br)c(Br)s2)cc(C(N)=O)c1 50.1 µM [inhibitor, single point], COc1ccc(CCNC(=O)Cn2nnc(-c3cccc(OC)c3OC)n2)cc1OC 17.8 µM [inhibitor, single point], O=C(Nc1c(Cl)cccc1Cl)C1CCC1 398 µM [inhibitor, partial curve, poor fit], CN(C)c1nc(N)nc(CSc2nnnn2-c2ccc(F)cc2)n1 100 µM [inhibitor, single point], COc1ccc2nc(NC(=O)C(NS(=O)(=O)c3cccc4nsnc34)C(C)C)sc2c1 (configuration not stated) 100 µM [inhibitor, single point], CN(C)C(CNC(=O)C1CCN(S(=O)(=O)c2ccccc2C(F)(F)F)CC1)Cc1ccccc1 (configuration not stated) 14.1 µM [inhibitor, single point], CCCCNc1c(NC(C)=O)c(=O)oc2ccccc12 15.8 µM [inhibitor, single point], CCOc1ccc(C(=O)Nn2cnnc2)cc1 100 µM [inhibitor, single point], O=C(CSc1nnc(SCc2ccc(Cl)cc2)s1)c1ccc2c(c1)OCO2 79.4 µM [inhibitor, partial curve], COc1ccccc1NC(=S)N(CCc1c(C)[nH]c2ccccc12)Cc1cccs1 100 µM [inhibitor, single point], COc1ccc2c(C)cc(=S)[nH]c2c1 794 µM [inhibitor, partial curve, poor fit], CCc1ccc(Nc2n[n+](-c3ccccc3)c(-c3ccc(SC)cc3)s2)cc1 39.8 µM [inhibitor, partial curve, poor fit]

Potency, inactive:
COc1ccc(C(C[N+](=O)[O-])c2c(C)cc3ccccn23)c(OC)c1 (configuration not stated), COCCN=c1scc(-c2cc(OC)c(OC)c(OC)c2)n1/N=C/c1c(C)[nH]c2ccccc12, COc1ccccc1CN1C[C@@H]2C[C@@H](c3[nH]c4c(C)cccc4c3C)N3CCC[C@@]23C1=O, O=C(O)C1C2C=CC(C2)C1C(=O)NCc1ccc2c(c1)OCO2 (configuration not stated), Cc1ccc(S(=O)(=O)NC2=C(N3CCN(Cc4ccccc4)CC3)C(=O)c3ccccc3C2=O)cc1, CCNC(=O)n1nccc1C(C)Oc1cccc(C(F)(F)F)c1 (configuration not stated), COc1cc(CNc2ccc(CNc3ncn[nH]3)cc2)ccc1OCc1ccccc1, COc1cccc(C(=O)OCC(=O)NCCNC(=O)COC(=O)c2cccc(OC)c2OC)c1OC, COc1ccc(-c2csc(/C(C#N)=C\c3ccc(O)c([N+](=O)[O-])c3)n2)cc1OC, CCNC(=O)COc1ccc(/C=C2\COc3ccccc3C2=O)cc1OC, O=C(CSC1=NNC(c2ccccn2)S1)Nc1cccc(Cl)c1 (configuration not stated)

Potency, active:
CN(C)C(=S)NC(C)(C)C 44.7 µM
